The supplement of paper PMC10849652
The other results are listed elsewhere or left out.

Sequences of proteins named here, by UniProt entry; tags and fusion partners are left off. A change or cut given only in a name is not applied to a line headed by its entry.
UniProt P14649: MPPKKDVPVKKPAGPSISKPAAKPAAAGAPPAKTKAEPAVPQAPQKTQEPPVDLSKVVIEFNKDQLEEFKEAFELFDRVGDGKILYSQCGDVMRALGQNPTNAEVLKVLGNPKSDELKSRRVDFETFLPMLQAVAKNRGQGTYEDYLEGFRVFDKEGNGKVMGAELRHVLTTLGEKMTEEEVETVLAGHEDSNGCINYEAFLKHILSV
UniProt P58546, whole entry, looked up: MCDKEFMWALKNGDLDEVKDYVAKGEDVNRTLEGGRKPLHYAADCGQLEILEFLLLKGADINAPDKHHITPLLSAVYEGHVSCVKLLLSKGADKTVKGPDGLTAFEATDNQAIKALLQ
UniProt Q9Y3D2: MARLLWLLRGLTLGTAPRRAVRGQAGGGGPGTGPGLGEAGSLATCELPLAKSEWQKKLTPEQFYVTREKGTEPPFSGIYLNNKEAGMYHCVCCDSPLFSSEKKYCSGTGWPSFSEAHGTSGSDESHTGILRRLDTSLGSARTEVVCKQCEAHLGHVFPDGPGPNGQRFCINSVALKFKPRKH
UniProt Q15390: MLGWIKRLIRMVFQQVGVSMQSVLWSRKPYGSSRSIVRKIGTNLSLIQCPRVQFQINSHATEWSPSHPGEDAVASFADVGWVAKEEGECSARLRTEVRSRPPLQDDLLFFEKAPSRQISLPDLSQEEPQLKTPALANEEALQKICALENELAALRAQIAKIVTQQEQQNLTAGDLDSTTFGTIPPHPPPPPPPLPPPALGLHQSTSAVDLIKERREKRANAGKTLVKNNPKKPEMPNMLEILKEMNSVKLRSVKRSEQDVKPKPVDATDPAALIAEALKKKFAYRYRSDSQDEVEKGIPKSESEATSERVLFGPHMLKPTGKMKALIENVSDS
UniProt Q765P7: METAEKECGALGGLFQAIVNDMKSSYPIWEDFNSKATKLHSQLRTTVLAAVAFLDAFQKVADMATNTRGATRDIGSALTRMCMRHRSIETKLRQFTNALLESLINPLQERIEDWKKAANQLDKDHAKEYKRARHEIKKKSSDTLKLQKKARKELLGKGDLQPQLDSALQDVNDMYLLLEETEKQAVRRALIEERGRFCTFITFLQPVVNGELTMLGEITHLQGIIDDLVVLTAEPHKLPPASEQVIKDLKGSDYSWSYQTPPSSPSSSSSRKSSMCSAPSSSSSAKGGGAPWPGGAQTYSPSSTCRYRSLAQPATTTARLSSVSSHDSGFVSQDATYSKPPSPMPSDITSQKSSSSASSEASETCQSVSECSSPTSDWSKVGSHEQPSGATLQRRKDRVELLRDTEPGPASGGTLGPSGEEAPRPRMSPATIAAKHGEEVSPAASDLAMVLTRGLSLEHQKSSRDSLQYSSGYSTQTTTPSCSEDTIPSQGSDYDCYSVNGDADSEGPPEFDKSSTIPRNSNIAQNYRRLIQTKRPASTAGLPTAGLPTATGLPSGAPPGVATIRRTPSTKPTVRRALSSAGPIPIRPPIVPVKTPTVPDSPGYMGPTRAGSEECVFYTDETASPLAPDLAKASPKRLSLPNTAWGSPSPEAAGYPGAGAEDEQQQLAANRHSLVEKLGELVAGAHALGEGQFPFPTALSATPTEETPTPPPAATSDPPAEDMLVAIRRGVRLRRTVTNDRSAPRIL
UniProt Q6UB35, whole entry, looked up: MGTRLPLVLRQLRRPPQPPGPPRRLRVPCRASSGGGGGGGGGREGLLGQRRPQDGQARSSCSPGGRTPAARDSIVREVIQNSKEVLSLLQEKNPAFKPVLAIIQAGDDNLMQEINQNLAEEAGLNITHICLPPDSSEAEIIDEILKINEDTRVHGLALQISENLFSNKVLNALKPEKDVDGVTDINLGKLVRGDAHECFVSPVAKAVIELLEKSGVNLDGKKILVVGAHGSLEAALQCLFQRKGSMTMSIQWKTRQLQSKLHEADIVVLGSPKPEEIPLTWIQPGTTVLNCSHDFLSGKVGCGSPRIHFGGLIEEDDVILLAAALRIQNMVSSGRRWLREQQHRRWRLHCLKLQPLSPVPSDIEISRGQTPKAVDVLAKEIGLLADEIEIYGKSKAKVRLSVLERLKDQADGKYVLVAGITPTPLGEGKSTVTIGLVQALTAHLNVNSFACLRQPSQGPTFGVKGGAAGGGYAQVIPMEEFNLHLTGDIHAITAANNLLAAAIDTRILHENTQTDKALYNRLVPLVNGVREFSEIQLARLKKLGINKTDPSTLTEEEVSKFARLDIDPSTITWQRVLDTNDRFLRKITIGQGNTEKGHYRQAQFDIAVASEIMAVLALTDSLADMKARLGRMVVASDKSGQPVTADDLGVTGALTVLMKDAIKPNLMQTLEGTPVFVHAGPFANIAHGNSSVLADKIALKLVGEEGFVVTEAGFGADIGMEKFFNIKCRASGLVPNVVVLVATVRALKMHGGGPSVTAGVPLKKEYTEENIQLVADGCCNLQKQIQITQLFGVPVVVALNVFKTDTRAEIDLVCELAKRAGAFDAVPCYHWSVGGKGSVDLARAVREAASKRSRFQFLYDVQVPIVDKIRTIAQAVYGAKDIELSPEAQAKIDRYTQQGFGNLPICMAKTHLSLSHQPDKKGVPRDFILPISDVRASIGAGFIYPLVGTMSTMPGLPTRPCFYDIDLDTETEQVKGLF
UniProt P03915, whole entry, looked up: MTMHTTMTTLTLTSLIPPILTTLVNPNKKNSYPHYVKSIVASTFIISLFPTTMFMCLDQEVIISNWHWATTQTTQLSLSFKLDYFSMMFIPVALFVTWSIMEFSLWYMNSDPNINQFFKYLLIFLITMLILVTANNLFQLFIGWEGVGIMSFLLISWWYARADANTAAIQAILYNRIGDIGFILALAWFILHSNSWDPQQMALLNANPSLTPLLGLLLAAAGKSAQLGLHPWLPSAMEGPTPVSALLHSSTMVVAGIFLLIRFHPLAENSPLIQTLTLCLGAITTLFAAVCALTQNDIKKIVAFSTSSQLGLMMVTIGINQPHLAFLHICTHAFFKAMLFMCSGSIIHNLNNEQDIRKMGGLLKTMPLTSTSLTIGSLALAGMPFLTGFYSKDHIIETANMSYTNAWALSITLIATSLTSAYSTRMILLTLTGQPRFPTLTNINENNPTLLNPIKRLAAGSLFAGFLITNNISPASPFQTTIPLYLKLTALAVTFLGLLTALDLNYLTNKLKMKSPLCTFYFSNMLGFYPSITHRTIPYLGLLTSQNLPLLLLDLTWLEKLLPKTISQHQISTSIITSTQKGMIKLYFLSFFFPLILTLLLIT
UniProt Q9C0I1: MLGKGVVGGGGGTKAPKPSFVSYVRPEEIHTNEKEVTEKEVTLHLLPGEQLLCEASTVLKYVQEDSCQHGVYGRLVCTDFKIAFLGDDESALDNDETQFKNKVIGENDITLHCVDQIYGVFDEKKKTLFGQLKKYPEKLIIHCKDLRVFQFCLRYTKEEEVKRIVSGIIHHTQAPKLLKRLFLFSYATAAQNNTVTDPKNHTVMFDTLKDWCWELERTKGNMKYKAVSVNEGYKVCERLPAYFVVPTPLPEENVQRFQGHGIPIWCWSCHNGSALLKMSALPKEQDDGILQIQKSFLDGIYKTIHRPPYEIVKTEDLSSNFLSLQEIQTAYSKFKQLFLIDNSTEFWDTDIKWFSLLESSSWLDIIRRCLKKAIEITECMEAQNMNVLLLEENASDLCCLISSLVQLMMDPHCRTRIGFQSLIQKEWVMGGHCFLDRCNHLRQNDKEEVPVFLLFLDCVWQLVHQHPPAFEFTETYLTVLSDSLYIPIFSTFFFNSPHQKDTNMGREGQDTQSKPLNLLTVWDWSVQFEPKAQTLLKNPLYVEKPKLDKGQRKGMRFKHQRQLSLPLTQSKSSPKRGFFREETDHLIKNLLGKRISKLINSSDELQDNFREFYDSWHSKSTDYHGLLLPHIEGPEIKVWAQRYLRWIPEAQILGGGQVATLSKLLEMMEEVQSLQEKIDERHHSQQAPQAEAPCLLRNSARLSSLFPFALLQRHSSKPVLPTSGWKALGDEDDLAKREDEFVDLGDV
UniProt Q99417: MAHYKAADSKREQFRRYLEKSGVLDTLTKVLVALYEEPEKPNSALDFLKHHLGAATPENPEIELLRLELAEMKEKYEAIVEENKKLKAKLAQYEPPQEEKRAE
UniProt Q13505: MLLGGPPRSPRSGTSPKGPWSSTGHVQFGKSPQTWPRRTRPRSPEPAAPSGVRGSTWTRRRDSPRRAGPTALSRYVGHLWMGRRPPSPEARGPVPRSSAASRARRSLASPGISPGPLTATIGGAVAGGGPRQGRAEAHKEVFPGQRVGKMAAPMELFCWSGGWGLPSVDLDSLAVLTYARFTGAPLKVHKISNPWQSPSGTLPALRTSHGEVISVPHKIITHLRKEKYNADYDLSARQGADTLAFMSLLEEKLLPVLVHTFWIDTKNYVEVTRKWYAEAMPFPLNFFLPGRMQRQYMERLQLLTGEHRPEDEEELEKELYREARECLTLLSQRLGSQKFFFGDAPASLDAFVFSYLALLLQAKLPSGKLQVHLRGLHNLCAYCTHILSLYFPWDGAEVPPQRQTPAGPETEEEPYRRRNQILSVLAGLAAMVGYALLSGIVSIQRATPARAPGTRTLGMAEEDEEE
UniProt P00403, whole entry, looked up: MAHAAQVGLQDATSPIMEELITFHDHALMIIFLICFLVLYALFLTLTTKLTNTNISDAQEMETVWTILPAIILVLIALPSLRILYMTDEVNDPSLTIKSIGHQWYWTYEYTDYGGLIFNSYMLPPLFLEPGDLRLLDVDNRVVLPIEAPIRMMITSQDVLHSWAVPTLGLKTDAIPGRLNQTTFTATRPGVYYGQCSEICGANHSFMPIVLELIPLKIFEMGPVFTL
UniProt Q9ULH7: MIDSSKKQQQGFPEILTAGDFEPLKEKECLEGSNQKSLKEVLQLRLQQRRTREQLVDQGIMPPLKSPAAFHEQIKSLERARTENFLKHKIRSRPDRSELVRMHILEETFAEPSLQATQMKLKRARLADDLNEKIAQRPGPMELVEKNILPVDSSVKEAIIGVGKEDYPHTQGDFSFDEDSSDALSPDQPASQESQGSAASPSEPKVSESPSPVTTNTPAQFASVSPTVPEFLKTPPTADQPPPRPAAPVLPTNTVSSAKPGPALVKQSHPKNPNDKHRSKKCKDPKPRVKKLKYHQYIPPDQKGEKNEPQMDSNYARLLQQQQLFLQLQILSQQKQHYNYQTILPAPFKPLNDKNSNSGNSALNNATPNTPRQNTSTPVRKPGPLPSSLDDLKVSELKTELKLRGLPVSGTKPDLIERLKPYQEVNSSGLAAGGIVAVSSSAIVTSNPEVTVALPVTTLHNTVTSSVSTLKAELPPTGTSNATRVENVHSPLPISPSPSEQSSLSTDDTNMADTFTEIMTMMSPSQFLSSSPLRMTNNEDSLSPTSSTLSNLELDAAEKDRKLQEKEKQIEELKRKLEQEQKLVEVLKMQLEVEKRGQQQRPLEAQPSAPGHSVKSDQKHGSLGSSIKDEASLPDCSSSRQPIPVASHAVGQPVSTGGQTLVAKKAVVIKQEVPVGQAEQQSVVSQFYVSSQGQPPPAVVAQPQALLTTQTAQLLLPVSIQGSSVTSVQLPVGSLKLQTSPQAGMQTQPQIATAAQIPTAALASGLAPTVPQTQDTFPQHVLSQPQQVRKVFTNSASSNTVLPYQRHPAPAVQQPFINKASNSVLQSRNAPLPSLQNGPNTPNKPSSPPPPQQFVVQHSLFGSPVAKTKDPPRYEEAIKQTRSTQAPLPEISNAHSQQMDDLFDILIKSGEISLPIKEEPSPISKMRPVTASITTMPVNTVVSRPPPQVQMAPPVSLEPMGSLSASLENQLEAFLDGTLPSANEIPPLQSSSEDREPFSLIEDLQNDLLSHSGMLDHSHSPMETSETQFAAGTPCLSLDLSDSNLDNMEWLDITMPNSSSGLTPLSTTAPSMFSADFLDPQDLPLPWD
UniProt Q9Y6C9: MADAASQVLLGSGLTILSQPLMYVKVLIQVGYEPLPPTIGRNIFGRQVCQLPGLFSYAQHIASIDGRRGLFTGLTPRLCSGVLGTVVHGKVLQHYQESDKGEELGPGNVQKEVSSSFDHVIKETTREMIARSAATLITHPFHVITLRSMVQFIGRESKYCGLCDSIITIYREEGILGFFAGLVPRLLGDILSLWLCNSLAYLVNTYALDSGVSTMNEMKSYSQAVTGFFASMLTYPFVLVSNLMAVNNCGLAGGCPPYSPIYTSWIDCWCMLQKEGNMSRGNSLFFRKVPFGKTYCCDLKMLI

How the values were obtained:
Assay in all cases: log2 fold change, soluble protein after heating vs DMSO (PISA); higher = thermal stabilisation; K562 cells, 10 uM, 30 min; active = over 0.2 and 3.5 SD of the protein, either way, in both replicates (recomputed)
[1] = compound: CC1=C(C=C(C=C1)NC(=O)C2=CC(=CC=C2)C(C)(C)C#N)NC3=CC4=C(C=C3)N=CN(C4=O)C
How it was run: (§1)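 Soluble protein was quantified by TMTpro 16plex LC-MS/MS after channel sums were equalised. It was obtained as the supernatant after 21,000xg for 90 min from pooled aliquots of K562 cells (2×10^6 cells/mL, 10 μM compound, 30 min) heated for 3 min across 48°C-58°C and extracted in PBS with 0.5% NP-40 at 4°C. Thermal stability values are relative to control samples and come from duplicates. They are given as log2 fold changes.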

[2] = compound: CC1=C(C=C(C=C1)NC(=O)C2=CC(=CC=C2)N(C)C)NC(=O)C3=CC=C(C=C3)O
How it was run: as §1

[3] = compound: CC1=CC=C(C=C1)SC2=C3C=C(SC3=CN=C2)C(=O)N
How it was run: as §1

[4] = compound: CC1=NC(=CC=C1)C2=C(N=C(N2)C(C)(C)C)C3=CC4=NC=CN=C4C=C3
How it was run: as §1

Nexturastat A = compound: CCCCN(Cc1ccc(C(=O)NO)cc1)C(=O)Nc1ccccc1 [Nexturastat A]
How it was run: as §1

vemurafenib = compound: CCCS(=O)(=O)Nc1ccc(F)c(C(=O)c2c[nH]c3ncc(-c4ccc(Cl)cc4)cc23)c1F [vemurafenib]
How it was run: as §1

[5] = compound: CCCS(=O)(=O)Nc1ccc(F)c(C(=O)c2c[nH]c3ncc(Cl)cc23)c1F
How it was run: as §1

[6] = compound: CCCc1cc(C)[nH]c(=O)c1CNC(=O)c1cc(-c2ccnc(N3CCN(C)CC3)c2)cc2c1cnn2C(C)C
How it was run: as §1

givinostat = compound: CCN(CC)Cc1ccc2cc(COC(=O)Nc3ccc(C(=O)NO)cc3)ccc2c1 [givinostat]
How it was run: as §1

barasertib = compound: CCN(CCCOc1ccc2c(Nc3cc(CC(=O)Nc4cccc(F)c4)[nH]n3)ncnc2c1)CCOP(=O)(O)O [barasertib]
How it was run: as §1

[7] = compound: CC[C@@H]1C(=O)N(C)c2cnc(Nc3ccc(C(=O)NC4CCN(C)CC4)cc3OC)nc2N1C1CCCC1
How it was run: as §1

volasertib = compound: CC[C@@H]1C(=O)N(C)c2cnc(Nc3ccc(C(=O)N[C@H]4CC[C@H](N5CCN(CC6CC6)CC5)CC4)cc3OC)nc2N1C(C)C [volasertib]
How it was run: as §1

[8] = compound: CC[C@H](C)N1C=C(C2=C(C=C(C=C21)C3=CN=C(C=C3)N4CCNCC4)C(=O)NCC5=C(C=C(NC5=O)C)C)C
How it was run: as §1

epoxomicin = compound: CC[C@H](C)[C@@H](C(=O)N[C@@H]([C@@H](C)O)C(=O)N[C@@H](CC(C)C)C(=O)[C@]1(CO1)C)NC(=O)[C@H]([C@@H](C)CC)N(C)C(=O)C [epoxomicin]
How it was run: as §1

[9] = compound: CCn1c(C(=O)N(C2CC2)C2CC2)cc2c3c(ncn3C)c(Nc3cc(C)n(C)n3)nc21
How it was run: as §1

[10] = compound: CCn1cc(-c2ccnc3[nH]c(-c4cccc(CN(C)C)c4)cc23)c(-c2ccc(NC(=O)N(C)C)cc2)n1
How it was run: as §1

[11] = compound: CN(C)CC(=O)Nc1ccc2[nH]c(=O)c3ccccc3c2c1
How it was run: as §1

rosiglitazone = compound: CN(CCOC1=CC=C(C=C1)C[C@H]2C(=O)NC(=O)S2)C3=CC=CC=N3 (racemic) [rosiglitazone]
How it was run: as §1

[12] = compound: CN1C2=C(C3=C1C(=O)N(N=C3)CC4=CC(=CC=C4)N)SC(=C2)S(=O)C
How it was run: as §1

[13] = compound: CN1CCC(CNc2ccc3ncc(-c4cccc(OC(F)(F)F)c4)n3n2)CC1
How it was run: as §1

Measured: log2 fold change

MYL6B (UniProt P14649)
inactive: [1] -0.009 | [2] -0.067 | [3] 0.02 | [4] -0.02 | Nexturastat A -0.009 | vemurafenib -0.022 | [5] -0.01 | [6] -0.001 | givinostat -0.045 | barasertib 0.054 | [7] -0.013 | volasertib -0.053 | [8] -0.032 | epoxomicin 0.015 | [9] 0.024 | [10] -0.021 | [11] -0.001 | rosiglitazone -0.031 | [12] -0.039 | [13] -0.009

MTPN (UniProt P58546)
inactive: [1] -0.039 | [2] -0.055 | [3] 0.061 | [4] 0.037 | Nexturastat A 0 | vemurafenib -0.011 | [5] -0.015 | [6] -0.01 | givinostat -0.035 | barasertib 0.123 | [7] -0.131 | volasertib -0.18 | [8] 0.001 | epoxomicin 0.264 | [9] 0.036 | [10] 0.09 | [11] 0.012 | rosiglitazone -0.008 | [12] 0.018 | [13] 0.127

MSRB2 (UniProt Q9Y3D2)
inactive: [1] 0.008 | [2] -0.174 | [3] -0.042 | [4] -0.079 | Nexturastat A 0.007 | vemurafenib -0.076 | [5] -0.157 | [6] -0.014 | givinostat 0.035 | barasertib 0.128 | [7] -0.078 | volasertib 0.25 | [8] 0.129 | epoxomicin 0.033 | [9] 0.009 | [10] -0.079 | [11] 0.172 | rosiglitazone 0.111 | [12] -0.123 | [13] 0.081

MTFR1 (UniProt Q15390)
inactive: [1] -0.063 | [2] -0.02 | [3] 0.118 | [4] 0.012 | Nexturastat A 0.034 | vemurafenib 0.045 | [5] 0.037 | [6] -0.021 | givinostat -0.005 | barasertib -0.03 | [7] -0.021 | volasertib -0.034 | [8] -0.017 | epoxomicin 0.073 | [9] 0.02 | [10] -0.121 | [11] -0.047 | rosiglitazone 0.016 | [12] 0 | [13] -0.159

MTSS2 (UniProt Q765P7)
inactive: [1] -0.065 | [2] 0.008 | [3] -0.038 | [4] -0.04 | Nexturastat A -0.051 | vemurafenib 0.037 | [5] -0.106 | [6] 0.022 | givinostat -0.044 | barasertib -0.007 | [7] 0.106 | volasertib 0.041 | [8] -0.003 | epoxomicin -0.016 | [9] -0.037 | [10] 0.06 | [11] -0.009 | rosiglitazone 0.057 | [12] -0.022 | [13] -0.114

MTHFD1L (UniProt Q6UB35)
inactive: [1] -0.012 | [2] -0.014 | [3] 0.005 | [4] 0.021 | Nexturastat A -0.03 | vemurafenib 0.029 | [5] 0.028 | [6] -0.024 | givinostat -0.011 | barasertib 0.027 | [7] -0.02 | volasertib -0.06 | [8] 0.043 | epoxomicin 0.01 | [9] -0.002 | [10] -0.071 | [11] 0.034 | rosiglitazone 0.02 | [12] -0.063 | [13] -0.042

MT-ND5 (UniProt P03915)
inactive: [1] -0.059 | [2] 0.046 | [3] 0.17 | [4] -0.019 | Nexturastat A -0.02 | vemurafenib -0.007 | [5] 0.199 | [6] -0.006 | givinostat -0.013 | barasertib -0.024 | [7] 0.032 | volasertib -0.076 | [8] 0.025 | epoxomicin -0.011 | [9] 0.053 | [10] 0.071 | [11] 0.029 | rosiglitazone 0.003 | [12] 0.035 | [13] 0.035

Two records drawn at random from the list so far, as already listed:
MT-ND5 (UniProt P03915)
inactive: [1] -0.059 | [2] 0.046 | [3] 0.17 | [4] -0.019 | Nexturastat A -0.02 | vemurafenib -0.007 | [5] 0.199 | [6] -0.006 | givinostat -0.013 | barasertib -0.024 | [7] 0.032 | volasertib -0.076 | [8] 0.025 | epoxomicin -0.011 | [9] 0.053 | [10] 0.071 | [11] 0.029 | rosiglitazone 0.003 | [12] 0.035 | [13] 0.035

MTFR1 (UniProt Q15390)
inactive: [1] -0.063 | [2] -0.02 | [3] 0.118 | [4] 0.012 | Nexturastat A 0.034 | vemurafenib 0.045 | [5] 0.037 | [6] -0.021 | givinostat -0.005 | barasertib -0.03 | [7] -0.021 | volasertib -0.034 | [8] -0.017 | epoxomicin 0.073 | [9] 0.02 | [10] -0.121 | [11] -0.047 | rosiglitazone 0.016 | [12] 0 | [13] -0.159

Continuation.

MTMR12 (UniProt Q9C0I1)
inactive: [1] -0.024 | [2] 0.027 | [3] -0.002 | [4] -0.009 | Nexturastat A -0.01 | vemurafenib -0.001 | [5] -0.008 | [6] -0.027 | givinostat -0.005 | barasertib -0.012 | [7] 0.042 | volasertib 0.06 | [8] 0.007 | epoxomicin 0.026 | [9] -0.007 | [10] 0.019 | [11] -0.002 | rosiglitazone -0.012 | [12] -0.016 | [13] 0.009

MRPS28 (UniProt Q9Y2Q9)
inactive: [1] 0.08 | [2] -0.042 | [3] -0.042 | [4] -0.017 | Nexturastat A 0.238 | vemurafenib 0.055 | [5] 0.001 | [6] 0.002 | givinostat 0.037 | barasertib -0.104 | [7] 0.074 | volasertib 0.186 | [8] 0.005 | epoxomicin 0.093 | [9] 0 | [10] -0.124 | [11] -0.052 | rosiglitazone -0.024 | [12] 0.027 | [13] -0.068

MYCBP (UniProt Q99417)
inactive: [1] -0.016 | [2] 0.004 | [3] 0 | [4] -0.007 | Nexturastat A -0.003 | vemurafenib 0 | [5] -0.058 | [6] 0.147 | givinostat 0.012 | barasertib 0 | [7] 0.033 | volasertib 0.094 | [8] -0.065 | epoxomicin 0.004 | [9] 0.008 | [10] -0.038 | [11] -0.019 | rosiglitazone 0.003 | [12] 0.011 | [13] -0.02

MTX1 (UniProt Q13505)
inactive: [1] -0.004 | [2] -0.019 | [3] -0.004 | [4] 0.02 | Nexturastat A -0.099 | vemurafenib 0.057 | [5] -0.032 | [6] -0.028 | givinostat -0.035 | barasertib 0.019 | [7] -0.034 | volasertib -0.061 | [8] 0.028 | epoxomicin 0.037 | [9] -0.007 | [10] -0.067 | [11] 0.007 | rosiglitazone 0.013 | [12] -0.077 | [13] 0.062

MT-CO2 (UniProt P00403)
inactive: [1] 0.028 | [2] -0.022 | [3] -0.066 | [4] -0.076 | Nexturastat A -0.142 | vemurafenib 0.062 | [5] 0.005 | [6] -0.02 | givinostat -0.026 | barasertib -0.043 | [7] -0.032 | volasertib 0.045 | [8] -0.006 | epoxomicin 0.011 | [9] 0.03 | [10] -0.049 | [11] 0.152 | rosiglitazone 0.02 | [12] -0.115 | [13] 0.103

MRPL58 (UniProt Q14197)
inactive: [1] 0.04 | [2] -0.013 | [3] -0.015 | [4] -0.036 | Nexturastat A 0.114 | vemurafenib -0.095 | [5] 0.021 | [6] 0.097 | givinostat 0.051 | barasertib -0.059 | [7] -0.023 | volasertib 0.067 | [8] 0.067 | epoxomicin -0.049 | [9] -0.071 | [10] 0.012 | [11] -0.034 | rosiglitazone -0.062 | [12] 0.071 | [13] -0.025

MRTFB isoform 5 (UniProt Q9ULH7)
inactive: [1] 0.008 | [2] 0.021 | [3] 0.015 | [4] 0.035 | Nexturastat A -0.021 | vemurafenib 0.017 | [5] 0.015 | [6] 0.111 | givinostat 0.023 | barasertib 0.017 | [7] 0.031 | volasertib -0.038 | [8] 0.008 | epoxomicin 0.041 | [9] -0.016 | [10] -0.14 | [11] -0.011 | rosiglitazone 0.045 | [12] -0.094 | [13] -0.023

MTCH2 (UniProt Q9Y6C9)
inactive: [1] 0.011 | [2] 0.016 | [3] 0.021 | [4] -0.023 | Nexturastat A -0.133 | vemurafenib -0.066 | [5] -0.006 | [6] -0.087 | givinostat -0.029 | barasertib -0.02 | [7] 0.016 | volasertib 0.048 | [8] -0.077 | epoxomicin -0.031 | [9] 0.026 | [10] -0.034 | [11] -0.004 | rosiglitazone 0.019 | [12] -0.06 | [13] 0.067

MRPS18A isoform 2 (UniProt Q9NVS2)
inactive: [1] 0.004 | [2] -0.029 | [3] -0.065 | [4] -0.054 | Nexturastat A 0.155 | vemurafenib -0.085 | [5] -0.15 | [6] 0.063 | givinostat 0.258 | barasertib -0.024 | [7] 0.154 | volasertib 0.228 | [8] 0.008 | epoxomicin -0.102 | [9] -0.035 | [10] 0.005 | [11] -0.062 | rosiglitazone 0.019 | [12] 0.108 | [13] 0
